These are yes or no findings as the source states them, for the method shown. Binding seen in cells or lysates may run through a third protein. A result given as binding can be weak or reduced; the word gives no strength.
Biological target: full-length APP (UniProt P05067)
Test: co-IP

Substance: human GSAP-16k with HA tag (a.a. 733 to a.a. 854) (from UniProt A4D1B5 733-854) (domain or fragment)
- binding: binds

From article doi:10.1101/2020.11.12.379313
